Laboratory results published in US20250283871A1, “COMPOSITIONS AND METHODS FOR MODULATING THE INTERACTION BETWEEN SS18-SSX FUSION ONCOPROTEIN AND NUCLEOSOMES” (Dana-Farber Cancer Institute, Inc., priority 2020, published 2025).

Tested on: BAF complex subunits and histone proteins
Assay: Mass spectrometry proteomics of purified HA-SS18 WT and HA-SS18-SSX1 complexes (Tables 5A-5E)
Set-up: species or system human
Details: HEK-293T; for Total (total peptides) / Unique (unique peptides): HA-SS18SSX1 purification, NE (soluble nuclear extract) fraction, peptides per identified protein
[1] = HA-SS18SSX1_NE_peptides (Table 5B), HA-SS18-SSX1 BAF complex purification from soluble nuclear extract
[2] = HA-SS18WT_NE_peptides: proteins co-purified with HA-SS18 WT from nuclear extract (NE)
[3] = HA-SS18WT_NE_peptides: HA-SS18 WT complexes purified from nuclear extract (NE), label = protein identified (Gene Symbol)

Row | Molecule | Total (peptides) [1] | Unique (peptides) [1] | Total (peptides) [2] | Unique (peptides) [2] | Total (peptides) [3] | Unique (peptides) [3] | Total (total peptides) | Unique (unique peptides)
1 | DLAT (protein, UniProt P10515 87-647, looked up) Dihydrolipoyllysine-residue …: SLPPHQKVPLPSLSPTMQAGTIARWEKKEGDKINEGDLIAEVETDKATVGFESLEECYMAKILVAEGTRDVPIGAIICITVGKPEDIEAFKNYTLDSSAAPTPQAAPAPTPAATASPPTPSAQAPGSSYPPHMQVLLPALSPTMTMGTVQRWEKKVGEKLSEGDLLAEIETDKATIGFEVQEEGYLAKILVPEGTRDVPLGTPLCIIVEKEADISAFADYRPTEVTDLKPQVPPPTPPPVAAVPPTPQPLAPTPSAPCPATPAGPKGRVFVSPLAKKLAVEKGIDLTQVKGTGPDGRITKKDIDSFVPSKVAPAPAAVVPPTGPGMAPVPTGVFTDIPISNIRRVIAQRLMQSKQTIPHYYLSIDVNMGEVLLVRKELNKILEGRSKISVNDFIIKASALACLKVPEANSSWMDTVIRQNHVVDVSVAVSTPAGLITPIVFNAHIKGVETIANDVVSLATKAREGKLQPHEFQGGTFTISNLGMFGIKNFSAIINPPQACILAIGASEDKLVPADNEKGFDVASMMSVTLSCDHRVVDGAVGAQWLAEFRKYLEKPITMLL | 1 | 1 | – | – | – | – | – | –
2 | TADA2B (protein, UniProt Q86TJ2 1-420, looked up) Transcriptional adapter 2-beta: MAELGKKYCVYCLAEVSPLRFRCTECQDIELCPECFSAGAEIGHHRRYHGYQLVDGGRFTLWGPEAEGGWTSREEQLLLDAIEQFGFGNWEDMAAHVGASRTPQEVMEHYVSMYIHGNLGKACIPDTIPNRVTDHTCPSGGPLSPSLTTPLPPLDISVAEQQQLGYMPLRDDYEIEYDQDAETLISGLSVNYDDDDVEIELKRAHVDMYVRKLKERQRRKNIARDYNLVPAFLGKDKKEKEKALKRKITKEEKELRLKLRPLYQFMSCKEFDDLFENMHKEKMLRAKIRELQRYRRNGITKMEESAEYEAARHKREKRKENKNLAGSKRGKEDGKDSEFAAIENLPGFELLSDREKVLCSSLNLSPARYVTVKTIIIKDHLQKRQGIPSKSRLPSYLDKVLKKRILNFLTESGWISRDAS | 1 | 1 | 2 | 2 | – | – | – | –
3 | SFXN3 (protein, UniProt Q9BWM7 1-321, looked up) Sideroflexin-3: MGELPLDINIQEPRWDQSTFLGRARHFFTVTDPRNLLLSGAQLEASRNIVQNYRAGVVTPGITEDQLWRAKYVYDSAFHPDTGEKVVLIGRMSAQVPMNMTITGCMLTFYRKTPTVVFWQWVNQSFNAIVNYSNRSGDTPITVRQLGTAYVSATTGAVATALGLKSLTKHLPPLVGRFVPFAAVAAANCINIPLMRQRELQVGIPVADEAGQRLGYSVTAAKQGIFQVVISRICMAIPAMAIPPLIMDTLEKKDFLKRRPWLGAPLQVGLVGFCLVFATPLCCALFPQKSSIHISNLEPELRAQIHEQNPSVEVVYYNKGL | 1 | 1 | – | – | 3 | 3 | – | –
4 | CPSF7 (protein, UniProt Q8N684 1-471, looked up) Cleavage and polyadenylation …: MSEGVDLIDIYADEEFNQDPEFNNTDQIDLYDDVLTATSQPSDDRSSSTEPPPPVRQEPSPKPNNKTPAILYTYSGLRNRRAAVYVGSFSWWTTDQQLIQVIRSIGVYDVVELKFAENRANGQSKGYAEVVVASENSVHKLLELLPGKVLNGEKVDVRPATRQNLSQFEAQARKRECVRVPRGGIPPRAHSRDSSDSADGRATPSENLVPSSARVDKPPSVLPYFNRPPSALPLMGLPPPPIPPPPPLSSSFGVPPPPPGIHYQHLMPPPPRLPPHLAVPPPGAIPPALHLNPAFFPPPNATVGPPPDTYMKASAPYNHHGSRDSGPPPSTVSEAEFEDIMKRNRAISSSAISKAVSGASAGDYSDAIETLLTAIAVIKQSRVANDERCRVLISSLKDCLHGIEAKSYSVGASGSSSRKRHRSRERSPSRSRESSRRHRDLLHNEDRHDDYFQERNREHERHRDRERDRHH | 1 | 1 | 2 | 2 | – | – | – | –
5 | SPATA5 (protein, UniProt Q8NB90 1-893, looked up) ATPase family gene 2 protein …: MSSKKNRKRLNQSAENGSSLPSAASSCAEARAPSAGSDFAATSGTLTVTNLLEKVDDKIPKTFQNSLIHLGLNTMKSANICIGRPVLLTSLNGKQEVYTAWPMAGFPGGKVGLSEMAQKNVGVRPGDAIQVQPLVGAVLQAEEMDVALSDKDMEINEEELTGCILRKLDGKIVLPGNFLYCTFYGRPYKLQVLRVKGADGMILGGPQSDSDTDAQRMAFEQSSMETSSLELSLQLSQLDLEDTQIPTSRSTPYKPIDDRITNKASDVLLDVTQSPGDGSGLMLEEVTGLKCNFESAREGNEQLTEEERLLKFSIGAKCNTDTFYFISSTTRVNFTEIDKNSKEQDNQFKVTYDMIGGLSSQLKAIREIIELPLKQPELFKSYGIPAPRGVLLYGPPGTGKTMIARAVANEVGAYVSVINGPEIISKFYGETEAKLRQIFAEATLRHPSIIFIDELDALCPKREGAQNEVEKRVVASLLTLMDGIGSEVSEGQVLVLGATNRPHALDAALRRPGRFDKEIEIGVPNAQDRLDILQKLLRRVPHLLTEAELLQLANSAHGYVGADLKVLCNEAGLCALRRILKKQPNLPDVKVAGLVKITLKDFLQAMNDIRPSAMREIAIDVPNVSWSDIGGLESIKLKLEQAVEWPLKHPESFIRMGIQPPKGVLLYGPPGCSKTMIAKALANESGLNFLAIKGPELMNKYVGESERAVRETFRKARAVAPSIIFFDELDALAVERGSSLGAGNVADRVLAQLLTEMDGIEQLKDVTILAATNRPDRIDKALMRPGRIDRIIYVPLPDAATRREIFKLQFHSMPVSNEVDLDELILQTDAYSGAEIVAVCREAALLALEEDIQANLIMKRHFTQALSTVTPRIPESLRRFYEDYQEKSGLHTL | 1 | 1 | 1 | 1 | – | – | – | –
6 | SURF4 (protein, UniProt O15260 2-269, looked up) Surfeit locus protein 4: GQNDLMGTAEDFADQFLRVTKQYLPHVARLCLISTFLEDGIRMWFQWSEQRDYIDTTWNCGYLLASSFVFLNLLGQLTGCVLVLSRNFVQYACFGLFGIIALQTIAYSILWDLKFLMRNLALGGGLLLLLAESRSEGKSMFAGVPTMRESSPKQYMQLGGRVLLVLMFMTLLHFDASFFSIVQNIVGTALMILVAIGFKTKLAALTLVVWLFAINVYFNAFWTIPVYKPMHDFLKYDFFQTMSVIGGLLLVVALGPGGVSMDEKKKEW | 1 | 1 | – | – | – | – | – | –
7 | CCDC47 (protein, UniProt Q96A33 21-483, looked up) PAT complex subunit CCDC47: KFDDFEDEEDIVEYDDNDFAEFEDVMEDSVTESPQRVIITEDDEDETTVELEGQDENQEGDFEDADTQEGDTESEPYDDEEFEGYEDKPDTSSSKNKDPITIVDVPAHLQNSWESYYLEILMVTGLLAYIMNYIIGKNKNSRLAQAWFNTHRELLESNFTLVGDDGTNKEATSTGKLNQENEHIYNLWCSGRVCCEGMLIQLRFLKRQDLLNVLARMMRPVSDQVQIKVTMNDEDMDTYVFAVGTRKALVRLQKEMQDLSEFCSDKPKSGAKYGLPDSLAILSEMGEVTDGMMDTKMVHFLTHYADKIESVHFSDQFSGPKIMQEEGQPLKLPDTKRTLLFTFNVPGSGNTYPKDMEALLPLMNMVIYSIDKAKKFRLNREGKQKADKNRARVEENFLKLTHVQRQEAAQSRREEKKRAEKERIMNEEDPEKQRRLEEAALRREQKKLEKKQMKMKQIKVKAM | – | – | – | – | 12 | 12 | 13 | 11
8 | WDR33 (protein, UniProt Q9C0J8 2-1336, looked up) pre-mRNA 3' end processing …: ATEIGSPPRFFHMPRFQHQAPRQLFYKRPDFAQQQAMQQLTFDGKRMRKAVNRKTIDYNPSVIKYLENRIWQRDQRDMRAIQPDAGYYNDLVPPIGMLNNPMNAVTTKFVRTSTNKVKCPVFVVRWTPEGRRLVTGASSGEFTLWNGLTFNFETILQAHDSPVRAMTWSHNDMWMLTADHGGYVKYWQSNMNNVKMFQAHKEAIREASFSPTDNKFATCSDDGTVRIWDFLRCHEERILRGHGADVKCVDWHPTKGLVVSGSKDSQQPIKFWDPKTGQSLATLHAHKNTVMEVKLNLNGNWLLTASRDHLCKLFDIRNLKEELQVFRGHKKEATAVAWHPVHEGLFASGGSDGSLLFWHVGVEKEVGGMEMAHEGMIWSLAWHPLGHILCSGSNDHTSKFWTRNRPGDKMRDRYNLNLLPGMSEDGVEYDDLEPNSLAVIPGMGIPEQLKLAMEQEQMGKDESNEIEMTIPGLDWGMEEVMQKDQKKVPQKKVPYAKPIPAQFQQAWMQNKVPIPAPNEVLNDRKEDIKLEEKKKTQAEIEQEMATLQYTNPQLLEQLKIERLAQKQVEQIQPPPSSGTPLLGPQPFPGQGPMSQIPQGFQQPHPSQQMPMNMAQMGPPGPQGQFRPPGPQGQMGPQGPPLHQGGGGPQGFMGPQGPQGPPQGLPRPQDMHGPQGMQRHPGPHGPLGPQGPPGPQGSSGPQGHMGPQGPPGPQGHIGPQGPPGPQGHLGPQGPPGTQGMQGPPGPRGMQGPPHPHGIQGGPGSQGIQGPVSQGPLMGLNPRGMQGPPGPRENQGPAPQGMIMGHPPQEMRGPHPPGGLLGHGPQEMRGPQEIRGMQGPPPQGSMLGPPQELRGPPGSQSQQGPPQGSLGPPPQGGMQGPPGPQGQQNPARGPHPSQGPIPFQQQKTPLLGDGPRAPFNQEGQSTGPPPLIPGLGQQGAQGRIPPLNPGQGPGPNKGDSRGPPNHHMGPMSERRHEQSGGPEHGPERGPFRGGQDCRGPPDRRGPHPDFPDDFSRPDDFHPDKRFGHRLREFEGRGGPLPQEEKWRRGGPGPPFPPDHREFSEGDGRGAARGPPGAWEGRRPGDERFPRDPEDPRFRGRREESFRRGAPPRHEGRAPPRGRDGFPGPEDFGPEENFDASEEAARGRDLRGRGRGTPRGGRKGLLPTPDEFPRFEGGRKPDSWDGNREPGPGHEHFRDTPRPDHPPHDGHSPASRERSSSLQGMDMASLPPRKRPWHDGPGTSEHREMEAPGGPSEDRGGKGRGGPGPAQRVPKSGRSSSLDGEHHDGYHRDEPFGGPPGSGTPSRGGRSGSNWGRGSNMNSGPPRRGASRGGGRGR | – | – | – | – | 10 | 9 | 13 | 12
